# Laboratory results taken from publication PMC10558571.
# By UniProt entry, the sequences of proteins in these tests, tags left out.
# UniProt P11413: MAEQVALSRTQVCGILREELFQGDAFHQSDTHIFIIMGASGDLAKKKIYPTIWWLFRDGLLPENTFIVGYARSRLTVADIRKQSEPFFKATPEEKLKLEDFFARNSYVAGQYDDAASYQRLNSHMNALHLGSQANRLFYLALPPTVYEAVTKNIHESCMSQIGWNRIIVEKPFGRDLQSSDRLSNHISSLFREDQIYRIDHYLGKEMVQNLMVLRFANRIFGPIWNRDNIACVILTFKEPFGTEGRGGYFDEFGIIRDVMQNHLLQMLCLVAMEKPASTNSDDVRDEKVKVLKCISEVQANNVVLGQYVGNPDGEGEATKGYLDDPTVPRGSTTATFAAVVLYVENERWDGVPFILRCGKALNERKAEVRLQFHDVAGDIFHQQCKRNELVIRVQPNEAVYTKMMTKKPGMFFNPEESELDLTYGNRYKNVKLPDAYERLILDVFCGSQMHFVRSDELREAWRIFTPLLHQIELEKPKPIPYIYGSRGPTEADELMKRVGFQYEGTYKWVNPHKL
# UniProt P11142: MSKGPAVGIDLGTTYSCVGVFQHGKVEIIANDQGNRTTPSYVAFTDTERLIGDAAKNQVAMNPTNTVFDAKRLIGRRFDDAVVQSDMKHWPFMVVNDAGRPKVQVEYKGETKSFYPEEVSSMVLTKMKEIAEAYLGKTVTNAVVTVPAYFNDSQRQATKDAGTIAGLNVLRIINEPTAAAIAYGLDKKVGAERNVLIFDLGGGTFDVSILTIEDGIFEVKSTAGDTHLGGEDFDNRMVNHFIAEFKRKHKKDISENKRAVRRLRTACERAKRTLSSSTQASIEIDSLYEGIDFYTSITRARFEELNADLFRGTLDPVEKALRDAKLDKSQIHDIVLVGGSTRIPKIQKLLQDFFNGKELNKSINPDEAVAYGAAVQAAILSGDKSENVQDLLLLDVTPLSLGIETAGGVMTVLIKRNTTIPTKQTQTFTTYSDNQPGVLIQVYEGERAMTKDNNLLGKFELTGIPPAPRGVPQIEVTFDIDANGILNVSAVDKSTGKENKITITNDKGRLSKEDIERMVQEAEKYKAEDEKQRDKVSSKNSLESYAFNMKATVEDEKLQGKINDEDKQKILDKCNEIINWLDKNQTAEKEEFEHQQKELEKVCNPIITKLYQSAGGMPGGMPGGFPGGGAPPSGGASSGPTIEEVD
# Biological target: Glucose-6-phosphate dehydrogenase (G6PD), 3×flag-tagged, overexpressed in SBC2 cells (UniProt P11413)
# Test: affinity purification with mass spectrometry; whole cell lysates of SBC2 cells with G6PD overexpression, supernatant incubated with anti-Flag antibody (mouse) or anti-IgG antibody (mouse) for 12 h at 4 °C, washed three times with TBS; mass spectrometric analysis by PTM BIOLAB
substance,measurement,value
HSPA8/HSC70 (from UniProt P11142 1-646),binding,binds

# These are yes or no findings as the source states them, for the method shown. Binding seen in cells or lysates may run through a third protein. A yes stands for co-enrichment or nearness to the bait. Other partners may have been found.
